The values that follow come from the supplement of paper PMC5949888.

Most values lie at the floor of the assay. Slopes are relative: functional sequences can read slightly below zero.

The test system of this data set is Saccharomyces cerevisiae PS128 hsf1 delta, HSF1(1-493) fusion. In words: growth estimate (transactivation domain function in HSF1 fusion, heat-shock survival) (a.u. (slope of normalised read count over time)); higher = stronger growth at 37°C, i.e. more transactivation activity. Particulars: library: random library.
As to NFQTDWGVKGAI, the growth estimate is 0.0112.

RVVSRIGLISSRDRLFLGWE: the growth estimate is less than -0.25.

Consider DYSCGFKR, for which the growth estimate is less than -0.25.

Consider CDQTPTGGAS, for which the growth estimate is less than -0.25.

With GNMG, the growth estimate was less than -0.25.

For RLSSTCRNSVK, the growth estimate was less than -0.25.

LTLMECLQ: the growth estimate was less than -0.25.

As to GNSGMQGVARIARSML, the growth estimate is less than -0.25.

Turning to KFRNIRYSRVCRCSRVRCTY, the growth estimate was less than -0.25.

Regarding AFPAFRMANMVFRFQINIPD, the growth estimate is less than -0.25.

Consider LKSAGQSA, for which the growth estimate is less than -0.25.

Take WVGVSAGLVCA: the growth estimate is less than -0.25.

In the case of FMWFRHS, the growth estimate was less than -0.25.

As to FEESMSCVTFKTGLFSGSRA, the growth estimate is less than -0.25.

With RIGSQLL, the growth estimate is less than -0.25.

As to GPAPRDMHLRYHRRLQGRYG, the growth estimate was less than -0.25.

As for PPSQR, the growth estimate is less than -0.25.

With GHRESGDKCKG, the growth estimate was less than -0.25.

In the case of DRPSY, the growth estimate is less than -0.25.

For the substance SLLIWFPSVWGDYSDLGPPD, the growth estimate was less than -0.25.

For LNGQRLVSAENWD, the growth estimate is less than -0.25.

GLGRDRSI: the growth estimate was less than -0.25.

GTTSKPHTRAMRHSLGSL: the growth estimate is less than -0.25.

Turning to SYLTIGGEPGLQLLAESVHP, the growth estimate is -0.246.

In the case of ADKP, the growth estimate was less than -0.25.

In the case of EKYVRH, the growth estimate was less than -0.25.

Regarding VLLCETGVQHAQFCQSGGCE, the growth estimate is less than -0.25.

For the substance WVRGGGS, the growth estimate is less than -0.25.

Turning to LSRCQIGGSLSGDLRVRHRH, the growth estimate was less than -0.25.

With FWQLVAGRGGHSRLRSNHSR, the growth estimate is less than -0.25.

For the substance LVHLAGVVYTGGAGGRIQVG, the growth estimate is less than -0.25.

As to VTQV, the growth estimate is less than -0.25.

GFVTGSWSGFHGRFRHCAPS: the growth estimate was less than -0.25.

As for REAVGRETTDPVEPAPPWKA, the growth estimate is less than -0.25.

Consider ISAGPIHIQDIQFKQRTLCT, for which the growth estimate is less than -0.25.

LPLSLAQSH: the growth estimate is less than -0.25.

With GRGGASSTIFAAIKQY, the growth estimate was less than -0.25.

As to EDNKSVIKWGRLGLTTIFFI, the growth estimate was less than -0.25.

Turning to RRAGHVGRTTRGFGTTLRDK, the growth estimate is less than -0.25.

GECSP: the growth estimate is -0.248.

In the case of CGIGIVPRLCLIKPASLIQL, the growth estimate is less than -0.25.

For the substance LGMGYASASSSRD, the growth estimate is less than -0.25.

Take LAEGLRRALLTTGSRSDLAC: the growth estimate was less than -0.25.

For RSKRLRDYPFRST, the growth estimate was less than -0.25.

As to IWMRSHWDLHGTLLYRCSVK, the growth estimate is less than -0.25.

As for NART, the growth estimate was -0.243.

As for ISLGGERGVDLSNALQIGTA, the growth estimate was less than -0.25.

Regarding GAVVHSSSNKRKGLV, the growth estimate was less than -0.25.

For the substance LFRHTAYFS, the growth estimate was less than -0.25.

For the substance CRLDRGAPRTSLILPCVAPS, the growth estimate is less than -0.25.

For the substance SFSYRLANMGHYQGFEAGWG, the growth estimate is -0.211.

Consider ICCIRKYRAFLVKSRNIRAP, for which the growth estimate was less than -0.25.

On to TAGSKRTGPKPCEWRLASR, for which the growth estimate is less than -0.25.

As for LFRITALGRRVYALGNQLSL, the growth estimate was less than -0.25.

Regarding SDPERN, the growth estimate was less than -0.25.

RTQALTGLVRQDRKIGREHL: the growth estimate was less than -0.25.

With TVDTRLHVWLGRYDCFVALK, the growth estimate was less than -0.25.

Regarding PATVIYGAGVNGGVAVNQES, the growth estimate was less than -0.25.

TGHC: the growth estimate was less than -0.25.

Consider LALGVCRVRLEANSVLQP, for which the growth estimate is less than -0.25.

For the substance PVRGAPVENNTAYSAPPHDR, the growth estimate is less than -0.25.

On to RWSLRMGVCSATDVE, for which the growth estimate was less than -0.25.

On to WPVIIEKERVHVGFRRICRA, for which the growth estimate is less than -0.25.

Consider QGTTYLGECVP, for which the growth estimate was less than -0.25.

With GVS, the growth estimate is less than -0.25.

In the case of WVWLSRCDSA, the growth estimate was -0.24.

Take CVHKWGGAGCILKVEGRL: the growth estimate is less than -0.25.

With EGIW, the growth estimate is less than -0.25.

Take CGSSRETTSITFESERLPTI: the growth estimate is less than -0.25.

In the case of LNTRRIWELHQKVPWRPSLL, the growth estimate was less than -0.25.

In the case of ICVDRQV, the growth estimate is less than -0.25.

For the substance TTVLSYLKRH, the growth estimate was less than -0.25.

Turning to WNCGRFIRFGARVAVVRAR, the growth estimate was less than -0.25.

In the case of GRSTVDTSYRLRFSSEIVGH, the growth estimate was less than -0.25.

As to LGYAL, the growth estimate is less than -0.25.

In the case of RELAHCSGTSA, the growth estimate was less than -0.25.

As to YLGLPQISQAGVCDRGYWQP, the growth estimate is less than -0.25.

CPRGMQLLYVKG: the growth estimate was less than -0.25.

RTKA: the growth estimate is -0.241.

As for WHRAGSLYKSNTLGMIRPGL, the growth estimate was -0.219.
